Assay results from PubChem BioAssay AID662 (National Center for Advancing Translational Sciences (NCATS), 2007).
The list shows a part of the results. The main result of the screen is listed elsewhere. These columns were measured beside it and carry no call. The list favours compounds with an active or inconclusive main result. Words in brackets tell the shape of the fitted curve; partial curves, single points and poor fits give uncertain potencies.

Test: Cell signaling CRE-BLA (Fsk stim)
Details: CHO CRE-bla reporter (cAMP response element driving beta-lactamase), forskolin EC10, beta-lactamase ratio; measured here: 460 nm blue channel
In short: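 AC50 values, positive or negative, reflect shifts in EC10 NKH 477-induced CRE-bla reporter activity in CHO cells. Incubation lasted 3 h at 37 °C before CCF4 substrate (2 h, room temperature) and ratiometric 460/530 nm reading.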

Structure (SMILES) | AC50
Cc1sc2ncn3c(C)nnc3c2c1C | 3.98 µM [falling, single point]
CCCCCC(=O)Nc1cccc(-c2nc3ncccc3o2)c1 | 15.8 µM [rising, single point]
O=C1CC(c2ccc(F)cc2)Cc2nc(N3CCc4ccccc43)ncc21 (centres undefined) | 15.8 µM [rising, single point]
Cc1noc(C)c1-c1nccc(-n2ccnc2)n1 | 7.94 µM [rising, partial curve]
CCOC(=O)c1cc(C#N)c(SCc2ccc(C#N)cc2)nc1C | 3.16 µM [rising, single point]
Cc1ccc(C2C3=C(CC(C)(C)CC3=O)N(CCN3CCOCC3)C3=C2C(=O)CC(C)(C)C3)cc1 | 12.6 µM [rising, partial curve]
COc1ccc(C)cc1S(=O)(=O)N(C)CC(=O)NCc1ccco1 | 12.6 µM [falling, single point]
O=C(Nc1c(C(=O)N2CCOCC2)cnn1-c1ccccc1)c1ccccc1 | 0.00398 µM [falling, full curve, poor fit]
Cc1ccc(C(=O)CC2(O)C(=O)N(CN3CCOCC3)c3ccccc32)cc1 (centres undefined) | 0.251 µM [falling, partial curve, poor fit]
Cc1ccc(SC/C(O)=C(\C#N)c2nc3ccccc3n2C)cc1 | 12.6 µM [rising, single point]
Cn1c(=O)oc2cc(S(=O)(=O)N3CCC(C(=O)Nc4ccc(OC(F)(F)F)cc4)CC3)ccc21 | 0.398 µM [falling, single point]
CCCn1nc(C(=O)NCCN2CCOCC2)c2ccccc2c1=O | 0.00794 µM [falling, full curve, poor fit]
Fc1ccc(COc2ccc(/C=N/n3cnnc3)cc2)cc1 | 0.1 µM [falling, full curve]
O=C(c1ccco1)N1CCN(c2ncnc3scc(-c4cccs4)c23)CC1 | 25.1 µM [rising, single point]
O=C(CCN1CCN(c2ccccn2)CC1)Nc1ccc(F)cc1 | 31.6 µM [falling, single point]
CC(NC(=O)c1cccs1)C(c1cccs1)N1CCN(Cc2ccccc2)CC1 (centres undefined) | 25.1 µM [rising, single point]
COc1ccc2c(c1OC)C(=O)OC2[C@H]1c2c(cc3c(c2OC)OCO3)CCN1C (some centres undefined) | 31.6 µM [rising, partial curve]
CN(Cc1ccccc1)Cc1nc2c(c(=O)n(C)c(=O)n2C)n1Cc1ccc(F)cc1 | 25.1 µM [rising, single point]
CCC(C)NC(=O)C1CCN(S(=O)(=O)c2cccnc2)CC1 (centres undefined) | 1 µM [falling, full curve]
O=C(Cc1c(F)cccc1Cl)N1CCN(C(=O)c2ccco2)CC1 | 10 µM [falling, single point]
Cc1ccc(C2=CC(c3ccc(N(C)C)cc3)n3nnnc3N2)cc1 (centres undefined) | 7.94 µM [rising, partial curve]
Cc1cnc(CNc2nc(-c3ccccc3Cl)nc3ccccc23)cn1 | 12.6 µM [rising, partial curve]
O=S(=O)(Cc1ccccc1)N1CCCCCC1 | 12.6 µM [rising, partial curve]

Three compounds drawn at random from those above, as already listed:
Structure (SMILES) | AC50
Cc1ccc(C2C3=C(CC(C)(C)CC3=O)N(CCN3CCOCC3)C3=C2C(=O)CC(C)(C)C3)cc1 | 12.6 µM [rising, partial curve]
O=C(c1ccco1)N1CCN(c2ncnc3scc(-c4cccs4)c23)CC1 | 25.1 µM [rising, single point]
CN(Cc1ccccc1)Cc1nc2c(c(=O)n(C)c(=O)n2C)n1Cc1ccc(F)cc1 | 25.1 µM [rising, single point]

The list goes on:

Structure (SMILES) | AC50
Cc1cccc2cc3c(NC(=O)CC(C)C)nn(C)c3nc12 | 10 µM [rising, partial curve]
Cc1[nH]c2ccccc2c1-c1cc(-c2cc(-c3c(C)[nH]c4ccccc34)nc(N)n2)nc(N)n1 | 5.01 µM [rising, partial curve]
COc1ccc2[nH]c(=O)c(CN(C(C)=O)c3cccc(C)c3)cc2c1 | 12.6 µM [rising, single point]
CC(C)CCSc1nc2c(c(=O)[nH]c(=O)n2C)n1CCCc1ccccc1 | 12.6 µM [rising, single point]
COc1ccc(CNC(=O)c2cc(-c3ccco3)on2)cc1 | 1.26 µM [falling, partial curve]
O=c1c(-c2ccccc2)nc2cnc(N3CCOCC3)nc2n1-c1ccccc1 | 3.98 µM [rising, partial curve]
O=C1CCCCCN1Cc1nnc(SCc2nc3ccccc3s2)n1-c1ccccn1 | 0.251 µM [falling, full curve]
O=C(Cn1cnc2c(nnn2-c2ccc(F)cc2)c1=O)NCc1ccco1 | 0.316 µM [falling, partial curve, poor fit]
COc1ccc2cc3cc(C(=O)NCCc4ccc(OC)c(OC)c4)oc3nc2c1 | 3.16 µM [rising, partial curve]
O=C(Nc1ccccn1)c1cccc(S(=O)(=O)N2CCCCC2)c1 | 0.794 µM [falling, full curve, poor fit]
O=C(CCn1nnc2ccccc21)Nc1nnc(Cc2ccccc2)s1 | 0.00398 µM [falling, full curve, poor fit]
Cn1c(CCNC(=O)c2ccccc2F)nnc1SCc1nc2ccccc2c(=O)[nH]1 | 0.00398 µM [falling, full curve, poor fit]
c1cncc(-c2nnc3n2CCC3)c1 | 3.16 µM [falling, single point]
C=CCn1nnc2sc3c(c2c1=O)CCC(C)C3 (centres undefined) | 10 µM [rising, single point]
COc1ccccc1C(=O)NCC(=O)Nc1ccccc1 | 25.1 µM [rising, single point]
COCC(=O)N1CCC2(CCCN(C(=O)Nc3cccc(F)c3)C2)CC1 | 25.1 µM [falling, single point]
c1ccc(Cc2ccc(OCCn3cncn3)cc2)cc1 | 0.00316 µM [falling, partial curve, poor fit]
COCC(=O)Nc1sc2c(c1C(=O)OC)CCCC2 | 12.6 µM [rising, single point]
CS(=O)(=O)Nc1cccc(-c2nc(N3CCNCC3)c3ccccc3n2)c1 | 10 µM [rising, partial curve]
O=C(O)CCc1nc(-c2ccccc2Cl)no1 | 10 µM [falling, single point]
COc1ccc2cc(C(c3nnnn3CCc3ccccc3)N3CCCC(C)C3)c(=O)[nH]c2c1 (centres undefined) | 12.6 µM [rising, partial curve]
Cc1sc2nc(-c3ccco3)oc(=O)c2c1C | 25.1 µM [rising, partial curve]
CCNc1nc(N2CCCCC2)nc(-n2nnc(C(=O)OCC)c2C)n1 | 12.6 µM [rising, partial curve]

Structure (SMILES) | AC50
COc1cc2oc(-c3ccccc3)cc(=O)c2cc1OC | 3.16 µM [rising, full curve]
CC(=O)C(Sc1nc(-c2ccco2)nc2c1c(=O)n(C)c(=O)n2C)C(=O)N(C)C (centres undefined) | 5.01 µM [rising, partial curve]
COc1cccc(N2CCN(CC(=O)Nc3nnc(-c4ccccc4)s3)CC2)c1 | 12.6 µM [falling, partial curve]
CC(C)(C)Nc1nc(SCc2ccccc2)nc(N2CCOCC2)n1 | 2 µM [rising, full curve]
COc1ccc(C(=O)O)cc1F | 0.00398 µM [falling, full curve, poor fit]
O=S(=O)(c1ccc(OCC(O)CN2CCN(c3ccccc3Cl)CC2)cc1)N1CCOCC1 (centres undefined) | 5.01 µM [falling, single point]
COCCn1c(=NC(=O)CSCC(=O)Nc2cc(C)on2)sc2cc(C(=O)OC)ccc21 | 1.26 µM [falling, full curve]
CSc1nnnn1CCn1nnnc1SC | 0.126 µM [falling, full curve, poor fit]
CCOC(=O)c1c(NC(=O)CSc2nnc(CN3CCOCC3)n2C)sc2c1CCCC2 | 7.94 µM [falling, partial curve]
CCOc1ccccc1C(=O)NC(C(=O)Nc1ccccc1N1CCOCC1)C(C)C (centres undefined) | 15.8 µM [rising, partial curve]
COc1cc(NC(=O)c2onc(C)c2Cl)c(OC)cc1Cl | 12.6 µM [rising, partial curve]
c1ccc2nc3c(nc2c1)CCc1nonc1-3 | 15.8 µM [rising, single point]
CCOC(=O)CNc1c(-c2ccc(O)cc2)nc2ccccn12 | 12.6 µM [falling, partial curve]
COC(=O)c1ccccc1NC(=O)CSc1nc(N)cc(N)n1 | 10 µM [rising, partial curve]
O=C(Oc1ccccc1)N1CCC2(CCCN(c3ccccc3)C2)CC1 | 1 µM [rising, partial curve]
O=c1[nH]cnc2c1sc(=S)n2-c1ccccc1 | 0.158 µM [rising, full curve, poor fit]
CCOC(=O)C1CCCN(C(=O)c2ccc(OCC)cc2)C1 (centres undefined) | 0.00316 µM [falling, full curve, poor fit]
CN(Cc1ccco1)c1ccnc(-c2cccc(C#N)c2)n1 | 6.31 µM [rising, partial curve]
C=CCOC(=O)C1=C(C)Nc2nnnn2C1c1cccc(OC)c1OC (centres undefined) | 25.1 µM [rising, single point]
N#Cc1c(SCC(N)=O)nc(-c2ccccc2)c2c1CCCC2 | 6.31 µM [rising, partial curve]
O=C(CN1C(=O)COc2ccccc21)NCCCN1CCN(Cc2ccccc2)CC1 | 0.0794 µM [falling, full curve]
CCN(CCCn1c(SCC#N)nc2ccccc2c1=O)c1ccccc1 | 2.51 µM [rising, full curve]
O=C(CSc1nc(-c2ccccc2)cc(=O)[nH]1)Nc1ccccn1 | 15.8 µM [rising, partial curve]
